Results taken from the supplement of paper PMC10849652.
Some of the results follow.

Protein sequences, listed by entry. Tags and fused reporters are not part of them. Lines headed by an entry give the natural chain unless they say otherwise; changes in a name come on top.
UniProt Q8IZ52: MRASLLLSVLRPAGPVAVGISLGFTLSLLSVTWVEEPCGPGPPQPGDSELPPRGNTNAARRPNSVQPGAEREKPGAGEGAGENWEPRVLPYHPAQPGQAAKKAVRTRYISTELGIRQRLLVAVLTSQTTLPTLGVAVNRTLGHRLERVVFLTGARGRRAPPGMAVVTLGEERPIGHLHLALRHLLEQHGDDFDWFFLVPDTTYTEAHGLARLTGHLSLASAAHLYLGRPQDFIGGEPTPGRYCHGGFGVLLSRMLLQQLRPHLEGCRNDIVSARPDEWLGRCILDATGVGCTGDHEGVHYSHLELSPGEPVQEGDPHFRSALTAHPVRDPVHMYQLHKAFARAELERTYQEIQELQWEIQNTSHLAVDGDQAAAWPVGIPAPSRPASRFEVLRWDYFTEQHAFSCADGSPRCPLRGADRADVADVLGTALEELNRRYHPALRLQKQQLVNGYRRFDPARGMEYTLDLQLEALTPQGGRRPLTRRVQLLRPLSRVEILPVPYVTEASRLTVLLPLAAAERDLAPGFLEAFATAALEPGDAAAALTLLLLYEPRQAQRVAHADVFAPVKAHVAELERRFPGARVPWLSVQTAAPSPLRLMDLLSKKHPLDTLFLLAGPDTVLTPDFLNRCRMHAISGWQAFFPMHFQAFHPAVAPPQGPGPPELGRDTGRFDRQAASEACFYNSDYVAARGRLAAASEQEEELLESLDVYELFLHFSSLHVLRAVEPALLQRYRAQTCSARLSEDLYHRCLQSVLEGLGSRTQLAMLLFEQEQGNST
UniProt Q9Y3D0: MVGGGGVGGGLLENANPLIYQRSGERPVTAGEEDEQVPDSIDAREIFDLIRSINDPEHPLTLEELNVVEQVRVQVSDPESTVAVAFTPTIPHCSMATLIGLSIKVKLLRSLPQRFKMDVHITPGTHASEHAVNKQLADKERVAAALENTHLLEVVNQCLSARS
UniProt Q9UFF9, whole entry, looked up: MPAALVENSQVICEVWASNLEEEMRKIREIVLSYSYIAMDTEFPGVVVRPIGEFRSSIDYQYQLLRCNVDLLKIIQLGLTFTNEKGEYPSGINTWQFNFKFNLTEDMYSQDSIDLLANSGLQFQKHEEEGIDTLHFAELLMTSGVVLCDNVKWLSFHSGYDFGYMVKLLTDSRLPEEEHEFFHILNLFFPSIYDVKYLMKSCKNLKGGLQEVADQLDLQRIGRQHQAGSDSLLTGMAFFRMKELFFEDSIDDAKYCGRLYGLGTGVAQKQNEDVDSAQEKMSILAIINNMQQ
UniProt Q15417: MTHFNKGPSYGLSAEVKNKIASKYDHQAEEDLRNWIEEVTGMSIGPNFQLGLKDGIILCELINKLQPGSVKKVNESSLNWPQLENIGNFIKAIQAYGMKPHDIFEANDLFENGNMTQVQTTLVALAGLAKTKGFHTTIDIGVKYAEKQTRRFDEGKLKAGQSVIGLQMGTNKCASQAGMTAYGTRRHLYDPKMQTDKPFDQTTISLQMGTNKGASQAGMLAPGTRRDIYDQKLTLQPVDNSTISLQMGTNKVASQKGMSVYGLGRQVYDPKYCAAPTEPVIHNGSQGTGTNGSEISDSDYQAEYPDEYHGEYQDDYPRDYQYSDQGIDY
UniProt Q96MX0: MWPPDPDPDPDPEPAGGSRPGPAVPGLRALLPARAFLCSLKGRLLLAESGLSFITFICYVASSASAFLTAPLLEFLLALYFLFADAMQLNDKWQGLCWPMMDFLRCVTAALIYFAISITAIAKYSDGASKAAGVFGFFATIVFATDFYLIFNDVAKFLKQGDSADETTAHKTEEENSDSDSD
UniProt Q13286: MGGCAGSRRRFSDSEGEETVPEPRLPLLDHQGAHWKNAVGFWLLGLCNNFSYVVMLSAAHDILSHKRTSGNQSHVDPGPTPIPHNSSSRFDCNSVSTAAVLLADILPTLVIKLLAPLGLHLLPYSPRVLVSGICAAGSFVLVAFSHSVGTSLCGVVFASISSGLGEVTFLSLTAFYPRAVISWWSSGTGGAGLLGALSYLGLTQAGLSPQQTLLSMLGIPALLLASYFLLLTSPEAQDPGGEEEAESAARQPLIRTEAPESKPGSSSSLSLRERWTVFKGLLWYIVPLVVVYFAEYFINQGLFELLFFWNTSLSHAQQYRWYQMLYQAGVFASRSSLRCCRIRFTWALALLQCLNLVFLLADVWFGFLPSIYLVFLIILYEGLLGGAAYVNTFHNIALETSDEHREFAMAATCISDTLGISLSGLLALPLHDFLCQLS
UniProt P39059: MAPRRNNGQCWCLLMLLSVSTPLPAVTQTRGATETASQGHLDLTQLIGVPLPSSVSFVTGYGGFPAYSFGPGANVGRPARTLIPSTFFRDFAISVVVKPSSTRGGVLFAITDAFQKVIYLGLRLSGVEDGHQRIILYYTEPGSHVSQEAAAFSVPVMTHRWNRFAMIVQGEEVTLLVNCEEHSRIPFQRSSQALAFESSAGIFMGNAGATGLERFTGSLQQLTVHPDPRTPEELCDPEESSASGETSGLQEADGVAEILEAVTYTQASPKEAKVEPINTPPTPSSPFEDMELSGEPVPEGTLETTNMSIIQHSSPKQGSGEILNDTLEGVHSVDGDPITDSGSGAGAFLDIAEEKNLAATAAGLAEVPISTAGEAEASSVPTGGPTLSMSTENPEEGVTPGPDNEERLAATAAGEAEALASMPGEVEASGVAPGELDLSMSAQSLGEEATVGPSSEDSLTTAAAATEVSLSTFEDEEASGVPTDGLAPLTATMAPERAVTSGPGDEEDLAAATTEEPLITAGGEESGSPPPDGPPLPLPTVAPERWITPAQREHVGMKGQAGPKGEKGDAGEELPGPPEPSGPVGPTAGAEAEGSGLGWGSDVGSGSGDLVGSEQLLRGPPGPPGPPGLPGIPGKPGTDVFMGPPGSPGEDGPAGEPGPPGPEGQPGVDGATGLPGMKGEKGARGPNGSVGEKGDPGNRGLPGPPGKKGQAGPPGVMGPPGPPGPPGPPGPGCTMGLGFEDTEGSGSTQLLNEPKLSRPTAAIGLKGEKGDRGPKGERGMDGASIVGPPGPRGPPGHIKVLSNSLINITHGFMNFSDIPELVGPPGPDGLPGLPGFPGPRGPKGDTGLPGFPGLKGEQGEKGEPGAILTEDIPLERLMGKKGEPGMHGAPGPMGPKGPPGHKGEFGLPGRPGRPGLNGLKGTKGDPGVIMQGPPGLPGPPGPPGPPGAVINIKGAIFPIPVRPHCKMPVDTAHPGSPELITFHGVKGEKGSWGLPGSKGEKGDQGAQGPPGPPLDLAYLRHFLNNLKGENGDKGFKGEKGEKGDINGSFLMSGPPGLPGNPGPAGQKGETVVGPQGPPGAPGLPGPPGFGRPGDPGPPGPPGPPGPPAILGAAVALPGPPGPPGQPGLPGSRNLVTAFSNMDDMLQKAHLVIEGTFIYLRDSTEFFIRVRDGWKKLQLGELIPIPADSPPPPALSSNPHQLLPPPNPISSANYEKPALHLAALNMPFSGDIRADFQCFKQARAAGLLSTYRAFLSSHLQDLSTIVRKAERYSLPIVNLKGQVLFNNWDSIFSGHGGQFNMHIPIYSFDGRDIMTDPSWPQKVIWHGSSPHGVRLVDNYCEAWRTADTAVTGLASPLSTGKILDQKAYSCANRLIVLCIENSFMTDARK
UniProt Q9NPF2: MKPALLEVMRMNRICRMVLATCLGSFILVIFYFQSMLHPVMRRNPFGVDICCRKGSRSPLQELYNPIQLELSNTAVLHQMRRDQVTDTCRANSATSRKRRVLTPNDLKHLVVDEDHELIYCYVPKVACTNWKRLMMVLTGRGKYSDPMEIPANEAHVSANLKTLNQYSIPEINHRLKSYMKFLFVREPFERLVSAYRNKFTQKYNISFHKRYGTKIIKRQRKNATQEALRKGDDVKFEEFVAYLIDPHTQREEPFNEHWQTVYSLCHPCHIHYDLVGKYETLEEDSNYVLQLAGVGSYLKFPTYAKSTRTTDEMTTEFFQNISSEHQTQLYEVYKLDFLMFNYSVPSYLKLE
UniProt Q9NX76: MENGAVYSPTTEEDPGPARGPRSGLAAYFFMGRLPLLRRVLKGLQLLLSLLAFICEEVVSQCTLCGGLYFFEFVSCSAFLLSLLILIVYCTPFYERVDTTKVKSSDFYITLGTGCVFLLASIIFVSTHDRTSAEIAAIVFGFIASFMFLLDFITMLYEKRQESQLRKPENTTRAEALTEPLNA
UniProt P30622: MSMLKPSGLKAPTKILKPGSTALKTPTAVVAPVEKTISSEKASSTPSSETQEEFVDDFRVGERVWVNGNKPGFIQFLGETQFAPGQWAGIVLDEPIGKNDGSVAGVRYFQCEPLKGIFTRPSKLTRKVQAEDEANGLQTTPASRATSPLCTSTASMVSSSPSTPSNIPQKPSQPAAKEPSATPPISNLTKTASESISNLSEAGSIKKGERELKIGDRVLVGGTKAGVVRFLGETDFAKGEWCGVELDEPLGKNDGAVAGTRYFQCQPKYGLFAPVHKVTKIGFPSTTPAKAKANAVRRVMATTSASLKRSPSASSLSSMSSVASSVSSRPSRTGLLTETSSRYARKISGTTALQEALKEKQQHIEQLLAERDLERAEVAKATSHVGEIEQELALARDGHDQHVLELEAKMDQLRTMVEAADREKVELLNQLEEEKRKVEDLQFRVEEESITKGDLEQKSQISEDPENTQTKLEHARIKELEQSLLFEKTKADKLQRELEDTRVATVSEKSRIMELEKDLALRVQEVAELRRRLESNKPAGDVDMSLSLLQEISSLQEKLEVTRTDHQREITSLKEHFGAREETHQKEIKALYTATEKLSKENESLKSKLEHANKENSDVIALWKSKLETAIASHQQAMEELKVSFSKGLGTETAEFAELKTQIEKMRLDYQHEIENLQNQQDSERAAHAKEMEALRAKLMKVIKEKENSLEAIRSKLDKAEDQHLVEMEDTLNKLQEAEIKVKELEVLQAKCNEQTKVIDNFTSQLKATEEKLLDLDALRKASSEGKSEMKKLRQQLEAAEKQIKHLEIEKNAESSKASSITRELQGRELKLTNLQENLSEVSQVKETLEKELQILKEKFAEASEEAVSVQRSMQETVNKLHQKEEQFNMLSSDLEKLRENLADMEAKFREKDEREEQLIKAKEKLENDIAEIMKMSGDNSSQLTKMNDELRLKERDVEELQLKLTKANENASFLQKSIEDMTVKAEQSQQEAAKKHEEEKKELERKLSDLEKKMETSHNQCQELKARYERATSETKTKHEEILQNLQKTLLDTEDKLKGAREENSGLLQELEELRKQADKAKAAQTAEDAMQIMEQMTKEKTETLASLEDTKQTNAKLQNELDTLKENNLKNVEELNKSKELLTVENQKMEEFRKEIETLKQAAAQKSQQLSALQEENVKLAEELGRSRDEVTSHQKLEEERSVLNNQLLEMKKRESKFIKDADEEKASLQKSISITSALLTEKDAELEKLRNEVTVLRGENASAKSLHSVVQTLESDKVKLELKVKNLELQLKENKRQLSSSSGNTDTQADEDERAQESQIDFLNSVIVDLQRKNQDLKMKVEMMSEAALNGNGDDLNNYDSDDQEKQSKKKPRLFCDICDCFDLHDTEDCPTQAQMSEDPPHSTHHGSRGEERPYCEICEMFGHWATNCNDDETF
UniProt O43529: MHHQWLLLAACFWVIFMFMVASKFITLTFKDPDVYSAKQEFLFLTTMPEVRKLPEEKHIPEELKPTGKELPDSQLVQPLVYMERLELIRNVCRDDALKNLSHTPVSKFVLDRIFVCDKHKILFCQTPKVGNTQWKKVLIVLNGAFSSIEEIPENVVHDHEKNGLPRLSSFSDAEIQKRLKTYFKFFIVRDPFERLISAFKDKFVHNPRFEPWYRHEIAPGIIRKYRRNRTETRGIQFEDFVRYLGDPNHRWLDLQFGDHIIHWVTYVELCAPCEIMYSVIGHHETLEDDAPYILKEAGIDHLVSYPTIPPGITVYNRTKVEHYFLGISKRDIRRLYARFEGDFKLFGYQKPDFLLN
UniProt Q9P003: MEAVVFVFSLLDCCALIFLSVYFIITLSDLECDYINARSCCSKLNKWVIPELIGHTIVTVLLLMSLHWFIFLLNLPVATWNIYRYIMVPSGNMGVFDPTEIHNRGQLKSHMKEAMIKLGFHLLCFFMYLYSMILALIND
UniProt Q9NWW5: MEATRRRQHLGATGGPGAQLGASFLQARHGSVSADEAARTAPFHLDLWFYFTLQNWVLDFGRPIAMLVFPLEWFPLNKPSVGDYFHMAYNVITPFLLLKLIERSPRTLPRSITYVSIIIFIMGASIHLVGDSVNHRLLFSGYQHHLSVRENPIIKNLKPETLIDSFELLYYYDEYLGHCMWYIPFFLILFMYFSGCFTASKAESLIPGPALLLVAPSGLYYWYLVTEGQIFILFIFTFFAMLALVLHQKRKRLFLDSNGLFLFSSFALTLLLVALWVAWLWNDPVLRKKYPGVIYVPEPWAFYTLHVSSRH
UniProt P05452, whole entry, looked up: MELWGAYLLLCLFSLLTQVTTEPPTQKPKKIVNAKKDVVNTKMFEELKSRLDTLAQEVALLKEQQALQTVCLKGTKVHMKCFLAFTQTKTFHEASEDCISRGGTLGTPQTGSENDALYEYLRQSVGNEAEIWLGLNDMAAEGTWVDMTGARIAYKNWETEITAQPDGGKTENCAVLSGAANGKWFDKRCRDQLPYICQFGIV

Each target was assayed with Cc1ncc(-c2ccnc(Nc3ccc(S(C)(=O)=O)cc3)n2)n1C(C)C (assay: log2 fold change, soluble protein after heating vs DMSO (PISA); higher = thermal stabilisation; K562 cells, 10 uM, 30 min; active = over 0.2 and 3.5 SD of the protein, either way, in both replicates (recomputed)).
Outline: (§1)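 Soluble protein was defined as the supernatant after 21,000xg for 90 min. It came from K562 cells at 2×10^6 cells/mL given 10 μM compound for 30 min, heated in aliquots for 3 min across 48°C-58°C, pooled, and extracted in PBS with 0.5% NP-40 at 4°C, and was quantified by TMTpro 16plex LC-MS/MS with equalised channel sums. Thermal stability against control samples, from duplicates, is reported as log2 fold change.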

log2 fold change, inactive:
CHPF (UniProt Q8IZ52) -0.116, CIAO2B (UniProt Q9Y3D0) -0.077, CNOT8 (UniProt Q9UFF9) -0.05, CLASRP (UniProt Q8N2M8) -0.171, CMPK2 (UniProt Q5EBM0) 0.027, CNN3 (UniProt Q15417) 0.108, CLASP2 (UniProt O75122) -0.231, CMTM3 (UniProt Q96MX0) 0.013, CLN3 (UniProt Q13286) -0.02, CLINT1 (UniProt Q14677) -0.151, COIL (UniProt P38432) -0.124, COL15A1 (UniProt P39059) -0.008, CHST11 (UniProt Q9NPF2) 0.008, CLIC6 (UniProt Q96NY7) 0.04, CMTM6 (UniProt Q9NX76) -0.025, CLIP1 isoform 2 (UniProt P30622) -0.043, CMTM4 (UniProt Q8IZR5) -0.117, CHST10 (UniProt O43529) 0.104, CNIH4 (UniProt Q9P003) 0.064, CKS2 (UniProt P33552) -0.222, CMYA5 (UniProt Q8N3K9) -0.105, CHST2 (UniProt Q9Y4C5) 0.105, CLPTM1L (UniProt G5E9Z2) -0.053, CLN6 (UniProt Q9NWW5) -0.055, CNOT11 (UniProt Q9UKZ1) 0.052, CLEC3B (UniProt P05452) 0.385, CIRBP (UniProt Q14011) -0.004

Each target was assayed with Cn1cc(-c2ccc3c(c2)CCN3C(=O)Cc2cccc(C(F)(F)F)c2)c2c(N)ncnc21 in the same assay as above.
Outline: as §1

log2 fold change, inactive:
CHPF (UniProt Q8IZ52) -0.041, CIAO2B (UniProt Q9Y3D0) 0.024, CNOT8 (UniProt Q9UFF9) -0.045, CLASRP (UniProt Q8N2M8) -0.038, CMPK2 (UniProt Q5EBM0) -0.021, CNN3 (UniProt Q15417) 0.023, CLASP2 (UniProt O75122) -0.155, CMTM3 (UniProt Q96MX0) 0.05, CLN3 (UniProt Q13286) -0.049, CLINT1 (UniProt Q14677) 0.047, COL15A1 (UniProt P39059) -0.002, CHST11 (UniProt Q9NPF2) 0.039, CIR1 (UniProt Q86X95) -0.131, CMTM6 (UniProt Q9NX76) 0.164, CLIP1 isoform 2 (UniProt P30622) 0.065, CHST10 (UniProt O43529) 0.071, CNIH4 (UniProt Q9P003) -0.026, CHST12 (UniProt Q9NRB3) -0.13, CMYA5 (UniProt Q8N3K9) 0.053, CHST2 (UniProt Q9Y4C5) -0.146, CLPTM1L (UniProt G5E9Z2) 0.037, CLN6 (UniProt Q9NWW5) -0.367, CNOT11 (UniProt Q9UKZ1) -0.065, CLSTN1 (UniProt O94985) 0.024, CLEC3B (UniProt P05452) 0.356, CIRBP (UniProt Q14011) 0

The targets below were run with Cn1cc(-c2ccc3nnc(C(F)(F)c4ccc5ncccc5c4)n3n2)cn1 in the same assay as above.
Outline: as §1

log2 fold change, inactive:
CHPF (UniProt Q8IZ52) -0.013, CNOT8 (UniProt Q9UFF9) 0.015, CLASP2 (UniProt O75122) -0.344, CLN3 (UniProt Q13286) 0.028, COIL (UniProt P38432) 0.169, COL15A1 (UniProt P39059) 0.033, CHST11 (UniProt Q9NPF2) -0.249, CLIC6 (UniProt Q96NY7) 0.023, CIR1 (UniProt Q86X95) -0.06, CMTM6 (UniProt Q9NX76) -0.002, CLIP1 isoform 2 (UniProt P30622) -0.031, CHST10 (UniProt O43529) -0.09, CNIH4 (UniProt Q9P003) 0.028, CHST12 (UniProt Q9NRB3) 0.107, CMYA5 (UniProt Q8N3K9) 0.024, CMIP (UniProt Q8IY22) -0.262, CLN6 (UniProt Q9NWW5) 0.047, CHURC1-FNTB (UniProt B4DL54) 0.003, CNOT11 (UniProt Q9UKZ1) -0.029, CLSTN1 (UniProt O94985) 0.034, CLEC3B (UniProt P05452) -0.175
